In PMC6291753:

Assays:
[1] = target: T1, GFP-HIP1R (wild-type full-length mouse HIP1R in pEGFP-C3) (mouse) (UniProt Q9JKY5); assay: co-IP; cultured rat hippocampal neurons electroporated with GFP-HIP1R or GFP control, with or without EGF; RIPA lysate, anti-GFP antibody (results text: myc-HIP1R, anti-myc), protein A-sepharose; blot for EGFR
T1 sequence: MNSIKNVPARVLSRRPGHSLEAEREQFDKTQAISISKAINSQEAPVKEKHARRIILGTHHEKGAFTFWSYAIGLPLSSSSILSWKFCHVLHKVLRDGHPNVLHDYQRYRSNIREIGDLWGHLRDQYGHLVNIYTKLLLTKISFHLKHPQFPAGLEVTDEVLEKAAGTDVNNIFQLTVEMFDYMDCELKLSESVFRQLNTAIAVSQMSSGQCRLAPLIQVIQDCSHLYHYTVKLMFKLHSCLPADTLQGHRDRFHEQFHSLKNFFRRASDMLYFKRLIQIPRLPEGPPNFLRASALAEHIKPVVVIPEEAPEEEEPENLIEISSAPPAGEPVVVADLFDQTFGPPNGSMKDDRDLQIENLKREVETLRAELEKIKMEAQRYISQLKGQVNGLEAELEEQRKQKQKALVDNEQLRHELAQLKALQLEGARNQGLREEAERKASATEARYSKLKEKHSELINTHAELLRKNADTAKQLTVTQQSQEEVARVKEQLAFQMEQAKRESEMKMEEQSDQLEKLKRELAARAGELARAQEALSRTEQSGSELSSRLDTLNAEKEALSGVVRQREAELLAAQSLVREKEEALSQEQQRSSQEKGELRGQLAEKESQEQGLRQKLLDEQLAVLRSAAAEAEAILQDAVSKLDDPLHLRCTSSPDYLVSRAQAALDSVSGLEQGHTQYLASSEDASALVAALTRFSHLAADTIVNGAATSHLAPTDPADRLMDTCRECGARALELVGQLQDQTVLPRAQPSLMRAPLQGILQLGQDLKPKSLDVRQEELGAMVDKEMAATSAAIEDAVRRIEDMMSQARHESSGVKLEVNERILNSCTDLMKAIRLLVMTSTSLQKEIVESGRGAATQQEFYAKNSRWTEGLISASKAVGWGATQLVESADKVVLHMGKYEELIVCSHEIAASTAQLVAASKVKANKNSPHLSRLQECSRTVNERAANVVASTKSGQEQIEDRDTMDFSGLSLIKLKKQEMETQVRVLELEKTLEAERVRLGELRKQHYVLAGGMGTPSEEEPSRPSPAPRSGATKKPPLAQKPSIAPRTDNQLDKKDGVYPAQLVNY

[2] = target: T2, GST-HIP1R_(633–822) (mouse) (UniProt Q9JKY5); assay: pull-down; 2 μg purified GST-HIP1R fragment incubated overnight at 4°C with RIPA lysate of high density cultured hippocampal neurons (DIV 6-8), glutathione sepharose beads 3 h; blot for EGFR; only the target purified
T2 sequence: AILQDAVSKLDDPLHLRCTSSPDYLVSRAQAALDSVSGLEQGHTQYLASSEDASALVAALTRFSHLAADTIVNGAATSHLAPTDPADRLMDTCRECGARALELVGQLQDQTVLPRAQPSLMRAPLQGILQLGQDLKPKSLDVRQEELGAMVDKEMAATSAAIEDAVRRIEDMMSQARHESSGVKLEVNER

binding [1]: binds
binding [2]: binds
Substance: epidermal growth factor receptor (EGFR), endogenous in cultured rat hippocampal neurons

No constants are given. Whether binding was seen depends on the method and setting. Binding seen in cells or lysates may run through a third protein. Binding can be weak; no strength is given. Tags and fused reporters may be left off the sequences shown.
